Results as given in the supplement of paper PMC12067093, “Discovery and optimisation of a covalent ligand for TRIM25 and its application to targeted protein ubiquitination” (Chemical Science, 2025).
The other results are listed elsewhere or left out.

Sequences of proteins named here, by UniProt entry; tags and fusion partners are left off. A change or cut given only in a name is not applied to a line headed by its entry.
UniProt Q14980: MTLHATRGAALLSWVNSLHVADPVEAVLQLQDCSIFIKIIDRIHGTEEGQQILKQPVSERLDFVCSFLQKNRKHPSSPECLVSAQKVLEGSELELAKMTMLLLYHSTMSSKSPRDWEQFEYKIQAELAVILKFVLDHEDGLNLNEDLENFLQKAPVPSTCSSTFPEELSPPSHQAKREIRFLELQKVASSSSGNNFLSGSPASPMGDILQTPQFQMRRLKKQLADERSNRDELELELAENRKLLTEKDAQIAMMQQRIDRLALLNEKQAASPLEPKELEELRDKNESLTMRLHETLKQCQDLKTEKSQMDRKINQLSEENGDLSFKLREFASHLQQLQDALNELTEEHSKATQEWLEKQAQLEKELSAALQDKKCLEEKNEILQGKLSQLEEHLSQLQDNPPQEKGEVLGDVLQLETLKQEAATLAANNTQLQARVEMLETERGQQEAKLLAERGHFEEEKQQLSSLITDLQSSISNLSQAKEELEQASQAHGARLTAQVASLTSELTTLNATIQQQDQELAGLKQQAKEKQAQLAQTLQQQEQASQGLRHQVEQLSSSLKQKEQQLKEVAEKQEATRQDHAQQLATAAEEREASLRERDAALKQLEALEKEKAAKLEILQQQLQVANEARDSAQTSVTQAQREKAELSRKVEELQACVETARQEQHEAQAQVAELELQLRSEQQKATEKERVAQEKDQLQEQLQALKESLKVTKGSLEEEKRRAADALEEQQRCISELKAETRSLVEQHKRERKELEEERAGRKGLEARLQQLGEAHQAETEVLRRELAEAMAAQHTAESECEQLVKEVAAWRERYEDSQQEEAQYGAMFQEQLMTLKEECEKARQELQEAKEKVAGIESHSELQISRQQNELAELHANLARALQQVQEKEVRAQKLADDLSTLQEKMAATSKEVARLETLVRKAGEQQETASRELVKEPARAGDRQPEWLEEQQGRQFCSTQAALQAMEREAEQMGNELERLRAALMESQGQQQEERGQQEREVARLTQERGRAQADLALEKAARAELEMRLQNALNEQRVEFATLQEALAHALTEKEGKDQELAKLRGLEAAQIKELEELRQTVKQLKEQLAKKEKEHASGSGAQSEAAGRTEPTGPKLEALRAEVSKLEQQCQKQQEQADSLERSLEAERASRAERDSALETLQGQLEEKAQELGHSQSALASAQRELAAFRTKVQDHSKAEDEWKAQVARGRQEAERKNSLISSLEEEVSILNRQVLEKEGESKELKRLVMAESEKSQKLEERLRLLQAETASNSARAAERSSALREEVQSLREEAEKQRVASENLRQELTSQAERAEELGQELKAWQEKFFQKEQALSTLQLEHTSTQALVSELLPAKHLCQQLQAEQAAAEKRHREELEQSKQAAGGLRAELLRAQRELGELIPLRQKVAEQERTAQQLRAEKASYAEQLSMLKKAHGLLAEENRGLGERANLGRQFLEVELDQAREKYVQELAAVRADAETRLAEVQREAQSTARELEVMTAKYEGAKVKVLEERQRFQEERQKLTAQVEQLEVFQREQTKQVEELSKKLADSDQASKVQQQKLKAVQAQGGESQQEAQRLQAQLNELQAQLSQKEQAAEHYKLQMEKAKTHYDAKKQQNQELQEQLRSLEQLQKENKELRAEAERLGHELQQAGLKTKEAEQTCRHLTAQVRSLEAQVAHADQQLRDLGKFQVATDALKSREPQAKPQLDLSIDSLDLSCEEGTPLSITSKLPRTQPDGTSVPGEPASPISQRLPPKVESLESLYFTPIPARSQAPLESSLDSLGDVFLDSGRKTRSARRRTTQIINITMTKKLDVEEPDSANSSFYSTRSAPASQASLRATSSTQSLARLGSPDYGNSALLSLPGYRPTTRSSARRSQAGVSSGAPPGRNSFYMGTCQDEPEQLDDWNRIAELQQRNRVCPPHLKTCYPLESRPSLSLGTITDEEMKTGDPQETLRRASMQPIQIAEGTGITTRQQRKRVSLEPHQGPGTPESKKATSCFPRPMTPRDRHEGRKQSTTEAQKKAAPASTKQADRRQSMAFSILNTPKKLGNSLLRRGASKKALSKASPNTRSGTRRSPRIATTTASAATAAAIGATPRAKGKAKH
UniProt O15381: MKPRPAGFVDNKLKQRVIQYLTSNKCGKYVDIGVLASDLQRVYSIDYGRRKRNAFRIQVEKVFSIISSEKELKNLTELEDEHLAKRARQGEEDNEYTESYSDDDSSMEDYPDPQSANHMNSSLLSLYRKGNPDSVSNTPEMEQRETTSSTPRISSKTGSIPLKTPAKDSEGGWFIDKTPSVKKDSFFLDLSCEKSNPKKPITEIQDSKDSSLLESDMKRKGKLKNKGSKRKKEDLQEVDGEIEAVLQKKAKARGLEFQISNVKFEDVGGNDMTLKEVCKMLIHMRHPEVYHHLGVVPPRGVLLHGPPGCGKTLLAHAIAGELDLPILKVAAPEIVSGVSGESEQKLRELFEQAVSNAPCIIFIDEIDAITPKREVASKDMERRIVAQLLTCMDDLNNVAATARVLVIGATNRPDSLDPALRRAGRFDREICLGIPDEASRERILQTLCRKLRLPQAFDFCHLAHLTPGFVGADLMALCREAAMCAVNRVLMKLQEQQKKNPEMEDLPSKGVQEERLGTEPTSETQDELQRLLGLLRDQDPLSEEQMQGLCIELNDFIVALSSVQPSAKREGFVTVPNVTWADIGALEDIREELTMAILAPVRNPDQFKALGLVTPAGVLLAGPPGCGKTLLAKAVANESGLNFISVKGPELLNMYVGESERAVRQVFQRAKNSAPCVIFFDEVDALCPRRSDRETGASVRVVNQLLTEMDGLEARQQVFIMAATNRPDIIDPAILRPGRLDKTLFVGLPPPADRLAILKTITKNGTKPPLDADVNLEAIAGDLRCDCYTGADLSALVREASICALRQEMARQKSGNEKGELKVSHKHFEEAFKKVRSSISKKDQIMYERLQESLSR
UniProt O60502: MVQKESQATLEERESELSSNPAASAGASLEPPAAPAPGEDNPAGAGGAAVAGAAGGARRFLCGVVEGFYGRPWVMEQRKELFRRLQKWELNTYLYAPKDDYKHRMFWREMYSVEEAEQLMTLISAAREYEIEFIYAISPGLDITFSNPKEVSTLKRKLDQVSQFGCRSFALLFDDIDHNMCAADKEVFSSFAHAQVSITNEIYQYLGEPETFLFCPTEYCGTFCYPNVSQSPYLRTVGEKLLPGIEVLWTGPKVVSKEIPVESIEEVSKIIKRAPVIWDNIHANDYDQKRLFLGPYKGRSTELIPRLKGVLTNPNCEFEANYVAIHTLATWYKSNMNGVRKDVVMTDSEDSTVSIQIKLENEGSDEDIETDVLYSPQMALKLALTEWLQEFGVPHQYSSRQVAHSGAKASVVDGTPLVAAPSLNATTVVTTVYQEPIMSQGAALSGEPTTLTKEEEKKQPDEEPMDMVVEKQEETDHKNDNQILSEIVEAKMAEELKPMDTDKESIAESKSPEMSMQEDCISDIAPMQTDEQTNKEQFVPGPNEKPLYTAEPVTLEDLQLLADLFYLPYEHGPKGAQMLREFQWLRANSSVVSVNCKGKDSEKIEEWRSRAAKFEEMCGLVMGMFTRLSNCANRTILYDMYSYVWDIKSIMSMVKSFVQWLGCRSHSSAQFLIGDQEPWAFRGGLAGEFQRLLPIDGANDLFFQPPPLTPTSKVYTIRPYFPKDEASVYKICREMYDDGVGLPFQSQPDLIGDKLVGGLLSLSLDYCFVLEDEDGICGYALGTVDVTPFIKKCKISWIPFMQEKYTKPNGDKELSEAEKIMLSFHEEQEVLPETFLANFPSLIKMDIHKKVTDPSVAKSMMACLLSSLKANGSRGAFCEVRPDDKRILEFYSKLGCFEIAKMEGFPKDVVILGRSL
UniProt Q9UKX7: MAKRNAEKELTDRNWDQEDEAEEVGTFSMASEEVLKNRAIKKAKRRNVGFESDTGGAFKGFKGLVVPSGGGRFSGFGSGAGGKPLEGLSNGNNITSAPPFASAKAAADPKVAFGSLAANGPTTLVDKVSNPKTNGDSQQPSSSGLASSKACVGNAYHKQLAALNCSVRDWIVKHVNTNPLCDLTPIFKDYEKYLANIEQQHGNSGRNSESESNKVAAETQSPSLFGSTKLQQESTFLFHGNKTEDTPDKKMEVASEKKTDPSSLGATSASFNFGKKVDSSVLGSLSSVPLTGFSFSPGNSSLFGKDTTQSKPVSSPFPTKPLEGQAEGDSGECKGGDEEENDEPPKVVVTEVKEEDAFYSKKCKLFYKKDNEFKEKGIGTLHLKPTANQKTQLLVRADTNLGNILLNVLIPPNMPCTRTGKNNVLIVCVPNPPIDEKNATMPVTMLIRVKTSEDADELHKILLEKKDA
UniProt P29728: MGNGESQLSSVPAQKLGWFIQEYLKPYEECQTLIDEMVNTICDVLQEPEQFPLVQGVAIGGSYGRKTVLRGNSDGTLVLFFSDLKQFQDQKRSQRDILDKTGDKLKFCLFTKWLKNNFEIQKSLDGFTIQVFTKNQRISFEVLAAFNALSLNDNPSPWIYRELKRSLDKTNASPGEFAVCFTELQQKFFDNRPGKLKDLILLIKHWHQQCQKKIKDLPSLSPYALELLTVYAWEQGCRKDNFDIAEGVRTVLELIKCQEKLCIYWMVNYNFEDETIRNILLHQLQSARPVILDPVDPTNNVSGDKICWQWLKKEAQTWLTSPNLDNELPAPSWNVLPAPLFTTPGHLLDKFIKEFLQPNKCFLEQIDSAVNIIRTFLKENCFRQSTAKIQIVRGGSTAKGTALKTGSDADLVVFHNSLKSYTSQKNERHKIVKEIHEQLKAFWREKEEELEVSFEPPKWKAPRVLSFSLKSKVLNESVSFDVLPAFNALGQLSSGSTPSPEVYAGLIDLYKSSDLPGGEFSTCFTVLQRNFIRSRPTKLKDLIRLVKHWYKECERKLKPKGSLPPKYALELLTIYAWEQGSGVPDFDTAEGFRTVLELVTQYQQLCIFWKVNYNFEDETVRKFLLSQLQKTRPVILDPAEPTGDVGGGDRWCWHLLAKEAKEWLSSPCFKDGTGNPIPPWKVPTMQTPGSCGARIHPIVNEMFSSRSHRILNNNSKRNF
UniProt P49757: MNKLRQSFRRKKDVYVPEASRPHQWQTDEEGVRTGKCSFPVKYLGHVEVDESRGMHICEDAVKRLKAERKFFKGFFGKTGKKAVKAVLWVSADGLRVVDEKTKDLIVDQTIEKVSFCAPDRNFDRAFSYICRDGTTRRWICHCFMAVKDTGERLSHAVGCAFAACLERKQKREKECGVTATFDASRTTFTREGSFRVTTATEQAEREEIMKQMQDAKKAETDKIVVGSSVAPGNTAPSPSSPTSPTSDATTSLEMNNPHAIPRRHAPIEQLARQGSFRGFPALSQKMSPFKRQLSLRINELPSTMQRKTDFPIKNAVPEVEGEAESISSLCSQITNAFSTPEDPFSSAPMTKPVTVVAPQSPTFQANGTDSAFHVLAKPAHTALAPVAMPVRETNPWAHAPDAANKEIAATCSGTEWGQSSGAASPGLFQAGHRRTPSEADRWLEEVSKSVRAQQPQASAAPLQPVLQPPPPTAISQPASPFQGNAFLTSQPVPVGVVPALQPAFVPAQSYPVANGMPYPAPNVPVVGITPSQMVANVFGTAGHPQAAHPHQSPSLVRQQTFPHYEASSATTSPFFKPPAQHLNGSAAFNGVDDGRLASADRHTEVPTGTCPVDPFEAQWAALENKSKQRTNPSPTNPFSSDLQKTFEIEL
UniProt Q8N1F7: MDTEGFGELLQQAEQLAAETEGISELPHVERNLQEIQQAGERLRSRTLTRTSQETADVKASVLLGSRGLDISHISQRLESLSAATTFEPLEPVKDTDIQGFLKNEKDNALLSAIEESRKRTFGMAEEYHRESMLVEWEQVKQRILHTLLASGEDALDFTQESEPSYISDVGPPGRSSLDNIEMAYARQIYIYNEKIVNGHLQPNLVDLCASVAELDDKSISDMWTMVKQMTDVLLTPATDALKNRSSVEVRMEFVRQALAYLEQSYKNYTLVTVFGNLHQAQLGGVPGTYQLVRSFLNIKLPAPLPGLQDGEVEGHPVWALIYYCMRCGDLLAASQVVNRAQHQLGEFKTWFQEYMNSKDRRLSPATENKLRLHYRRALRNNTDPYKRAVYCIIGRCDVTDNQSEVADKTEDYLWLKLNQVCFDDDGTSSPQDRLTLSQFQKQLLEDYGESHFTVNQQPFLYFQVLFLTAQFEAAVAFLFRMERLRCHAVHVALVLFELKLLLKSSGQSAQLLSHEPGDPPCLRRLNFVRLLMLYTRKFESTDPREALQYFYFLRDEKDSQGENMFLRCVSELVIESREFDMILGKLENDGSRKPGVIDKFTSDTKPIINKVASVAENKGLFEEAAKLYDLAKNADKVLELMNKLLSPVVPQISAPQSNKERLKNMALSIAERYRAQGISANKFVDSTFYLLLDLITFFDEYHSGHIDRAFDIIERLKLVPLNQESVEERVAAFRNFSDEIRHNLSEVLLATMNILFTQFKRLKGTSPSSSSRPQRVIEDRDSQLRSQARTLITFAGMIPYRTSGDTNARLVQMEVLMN

Compound: CC1Cc2ccccc2N1C(=O)C1CCCN(C1)C(=O)CCl (mixture of isomers) [TRIM25 ligand 11 (diastereomer mixture)]
Test: probe-labelled cysteine peptide fold change vs DMSO (competition) (log2 fold change); higher = less target engagement (more negative = stronger competition)
Settings: THP-1, incubation time: 4 h
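Note: competitive chemoproteomic profiling in live THP-1 cells with an iodoacetamide desthiobiotin (IA-DTB) probe, comparing probe-labelled peptide intensities in compound-treated cells against DMSO-treated controls.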

Row | Target | probe-labelled cysteine peptide fold change (10 µM) | probe-labelled cysteine peptide fold change (50 µM)
1 | NUMA1_Q14980_80_KHPSSPECLVSAQK (UniProt Q14980) | 0.0689 | -0.198
2 | NVL_O15381_687_NSAPCVIFFDEVDALCPR (UniProt O15381) | 0.137 | -0.182
3 | NUMA1_Q14980_1367_HLCQQLQAEQAAAEK (UniProt Q14980) | 0.0481 | -0.031
4 | OGA_O60502_863_SMMACLLSSLK (UniProt O60502) | -0.0745 | 0.0112
5 | NUP205_Q92621_237_QSLAESLFAWACQSPLGKEDTLLLIGHLER (UniProt Q92621) | -0.0149 | 0.0914
6 | NUMA1_Q14980_65_LDFVCSFLQK (UniProt Q14980) | 0.109 | 0.113
7 | NUP160_Q12769_480_ALQIFCR (UniProt Q12769) | 0.00491 | -0.0596
8 | NUP50_Q9UKX7_428_NNVLIVCVPNPPIDEK (UniProt Q9UKX7) | 0.0521 | -0.0512
9 | NUBP1_P53384_25_GASCQGCPNQR (UniProt P53384) | -0.0889 | -0.189
10 | NUDCD1_Q96RS6_67_LRDDQYTLEHMHAFGMYNYLHCDSWYQDSVYYIDTLGR (UniProt Q96RS6) | 0.223 | -0.0547
11 | NUMA1_Q14980_1367_HLCQQLQAEQAAAEKR (UniProt Q14980) | -0.15 | -0.0853
12 | NUMA1_Q14980_1673_EAEQTCR (UniProt Q14980) | -0.0221 | 0.00328
13 | OAS2_P29728_210_HWHQQCQK (UniProt P29728) | -0.27 | 0.109
14 | NUP188_Q5SRE5_95_FLGLDEEQSVQLLQCYLQEDYR (UniProt Q5SRE5) | -0.135 | -0.137
15 | OGFOD1_Q8N543_308_VCEALEHGHVEWSSR (UniProt Q8N543) | 0.234 | 0.129
16 | ODF2_Q5BJF6_364_LCMQIK (UniProt Q5BJF6) | -0.0478 | 0.0437
17 | OGDH_Q02218_283_FGLEGCEVLIPALK (UniProt Q02218) | 0.113 | -0.00551
18 | OAS2_P29728_361_CFLEQIDSAVNIIR (UniProt P29728) | 0.185 | 0.131
19 | OGFOD1_Q8N543_64_RTPFSHEVIVMDMDPFLHCVIPNFIQSQDFLEGLQK (UniProt Q8N543) | -0.278 | -0.106
20 | NUMB_P49757_176_ECGVTATFDASR (UniProt P49757) | -0.00986 | -0.0517
21 | NUDT8_Q8WV74_39_ARPASAAVLVPLCSVR (UniProt Q8WV74) | -0.0587 | 0.19

An excerpt of these results, with tabs:
Row	Target	probe-labelled cysteine peptide fold change (10 µM)	probe-labelled cysteine peptide fold change (50 µM)
4	OGA_O60502_863_SMMACLLSSLK (UniProt O60502)	-0.0745	0.0112
11	NUMA1_Q14980_1367_HLCQQLQAEQAAAEKR (UniProt Q14980)	-0.15	-0.0853

The list continues.

Row | Target | probe-labelled cysteine peptide fold change (10 µM) | probe-labelled cysteine peptide fold change (50 µM)
22 | NUP50_Q9UKX7_416_ADTNLGNILLNVLIPPNMPCTR (UniProt Q9UKX7) | -0.223 | -0.24
23 | NUP210_Q8TEM1_605_LPPGSEHCSGIR (UniProt Q8TEM1) | -0.0258 | -0.141
24 | NUP93_Q8N1F7_397_CDVTDNQSEVADK (UniProt Q8N1F7) | 0.118 | -0.0788
25 | NUP160_Q12769_605_DVICLIK (UniProt Q12769) | 0.53 | 0.432
26 | NUP205_Q92621_1297_QLVEIILTACPQDLIQAEDR (UniProt Q92621) | 0.232 | 0.0863
27 | NUP98_P52948_1419_KQINVCSQLDWK (UniProt P52948) | 0.0244 | 0.12
28 | OCIAD2_Q56VL3_134_HCLLTCEECK (UniProt Q56VL3) | -0.0564 | 0.0524
29 | OARD1_Q9Y530_33+38_TDSLAHCISEDCR (UniProt Q9Y530) | -0.0653 | 0.0103
30 | OAS1_P00973_25_FIEDYLLPDTCFR (UniProt P00973) | -0.0642 | -0.115
31 | OGDH_Q02218_604_SMSCPSTGLTEDILTHIGNVASSVPVENFTIHGGLSR (UniProt Q02218) | 0.082 | -0.0875
32 | OAT_P04181_150_VLPMNTGVEAGETACK (UniProt P04181) | 0.0276 | 0.0487
33 | NUP93_Q8N1F7_569_CVSELVIESR (UniProt Q8N1F7) | 0.425 | 0.186
34 | NUBP2_Q9Y5Y2_54_VGILDVDLCGPSIPR (UniProt Q9Y5Y2) | -0.0576 | -0.00943
35 | NUMB_P49757_160_LSHAVGCAFAACLER (UniProt P49757) | -0.143 | 0.0504
36 | NUDCD3_Q8IVD9_260_CVLVNLSK (UniProt Q8IVD9) | 0.0274 | 0.0771
37 | NUP160_Q12769_1309_VQNNLYHHCVINK (UniProt Q12769) | 0.17 | 0.227
38 | NUP153_P49790_860_FKKPEGSWDCELCLVQNK (UniProt P49790) | -0.102 | -0.0529
39 | NVL_O15381_431_EICLGIPDEASR (UniProt O15381) | 0.0951 | -0.136
40 | NUP160_Q12769_303_GDQSPSDRPLSLAVHCVEHDAFIFALCQDHK (UniProt Q12769) | 0.212 | 0.137
41 | NUMA1_Q14980_160_APVPSTCSSTFPEELSPPSHQAK (UniProt Q14980) | 0.0318 | -0.167
42 | NUMA1_Q14980_1907_NSFYMGTCQDEPEQLDDWNR (UniProt Q14980) | 0.235 | 0.0678
